Experimental data: PubChem BioAssay AID540303 (National Center for Advancing Translational Sciences (NCATS), 2011)
Out of some 330,000 compounds screened, about 1,000 (0.3%) were called active. Inconclusive results, whose numbers are uncertain, are shown with a selection of clear calls. Calls come from the whole dose curve; as a rule, active = well fitted inhibition curve with a large enough effect; inconclusive = small, poorly fitted or top-dose-only effect; inactive = no such curve, though single readings can be large or run the other way; tested in mouse RAW 264.7 cells. A potency beside an inconclusive call is a rough fit, not a confirmed value.

Test: qHTS for Inhibitors of Cell Surface uPA Generation; note: nearly all actives have a fitted effect of over 55% in size
Conditions: cell surface uPA generation assay; series mostly up to 38.3 µM
Outline: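 Murine RAW 264.7 cells are treated for 24 h with compound up to 38.3 uM final. Cell ATP, measured by ATP-Lite, remains high if blocking the uPA cascade prevents LF from reaching the cytoplasm.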
Potency is the fitted concentration of half-maximal effect.

Row | Structure (SMILES) | Potency
1 | CN(C)C1=NC[C@H](Cc2ccccc2)N1CC1CCCC1 | inconclusive: 7.08 µM [inhibitor, single point]
2 | CC(=O)c1ccc(-c2ccc(C(=O)Nc3nc(-c4ccccn4)cs3)o2)cc1 | inconclusive: 31.6 µM [inhibitor, partial curve, poor fit]
3 | O=C(CN(C(=O)CSc1nnc(COc2ccccc2)o1)c1ccc(F)cc1)NC1CCCC1 | inconclusive: 0.562 µM [inhibitor, partial curve, poor fit]
4 | COC(=O)C1=CO[C@@H](O)C2C(CO)=CCC12 (stereo partly specified) | inconclusive: 11.2 µM [inhibitor, single point]
5 | CCN(CC)CCCNC(=O)c1cc2c(=O)n(CC)c3ccccc3c2s1 | inconclusive: 10 µM [inhibitor, single point]
6 | Cc1cccc(N=N/C(=C\O)C(=O)c2ccc(Br)cc2)c1 | inactive
7 | COC(=O)c1ccsc1NC(=O)CCS(=O)(=O)c1ccccc1 | inconclusive: 28.2 µM [inhibitor, single point]
8 | Cc1ccc(-n2c(=O)c3ccccc3n(CC(=O)C(C)(C)C)c2=O)cc1 | inconclusive: 1.12 µM [inhibitor, partial curve, poor fit]
9 | Cc1cccc(N2CCN(C(=O)Cc3ccccc3[N+](=O)[O-])CC2)c1C | inactive
10 | Cc1ccc(S(=O)(=O)Nc2ccc3c(c2)OCCO3)c(C)c1NS(C)(=O)=O | inactive
11 | COc1ccc(C/C(C)=N\NC(=O)c2cn(C)c3ccccc23)cc1OC | inconclusive: 7.94 µM [inhibitor, single point]
12 | COc1cccc(CCN2CCC(CNS(=O)(=O)c3cc(-c4cc(C)no4)ccc3OC)CC2)c1 | inconclusive: 10 µM [inhibitor, single point]
13 | Cc1ccccc1C(=O)N1CCN(c2ccc(NC(=S)NC(=O)c3cccs3)cc2)CC1 | inconclusive: 2.82 µM [inhibitor, full curve, poor fit]
14 | CCCc1cc(C(=O)Nc2ccn(Cc3ccc(C)cc3)n2)no1 | inconclusive: 1.78 µM [inhibitor, partial curve, poor fit]
15 | Cc1cc(C)n(-c2ccc(C(=O)Nc3ccccn3)cc2)n1 | inconclusive: 3.55 µM [inhibitor, partial curve, poor fit]
16 | CC1CCCN(c2nc3c(c(=O)[nH]c(=O)n3C)n2CCCc2ccccc2)C1 (stereo unspecified) | inconclusive: 5.01 µM [inhibitor, partial curve, poor fit]
17 | Cc1ccc(NC(=O)CN2C(=O)NC3(CCCc4ccccc43)C2=O)c([N+](=O)[O-])c1 (stereo unspecified) | inactive
18 | Cc1sc2ncnc(N3CCN(S(=O)(=O)c4ccc(C(C)(C)C)cc4)CC3)c2c1C | inconclusive: 2.82 µM [inhibitor, partial curve, poor fit]
19 | CCOC(=O)N1C(=O)[C@](CC)(c2ccccc2)N1C(=O)OCC | inconclusive: 10 µM [inhibitor, partial curve, poor fit]
20 | Nc1c(/C=C2/C=CC(=O)C(O)=C2)c(=O)nc2sc(CC(=O)N3CCCCC3)nn12 | inconclusive: 0.398 µM [inhibitor, partial curve, poor fit]
21 | O=C(CN1CCN(c2ccccc2O)CC1)Nc1cc(S(=O)(=O)N2CCCC2)ccc1Cl | inactive

3 entries out of the list, ordered by formula weight, rising:
Row | Structure (SMILES) | Potency
14 | CCCc1cc(C(=O)Nc2ccn(Cc3ccc(C)cc3)n2)no1 | inconclusive: 1.78 µM [inhibitor, partial curve, poor fit]
17 | Cc1ccc(NC(=O)CN2C(=O)NC3(CCCc4ccccc43)C2=O)c([N+](=O)[O-])c1 (stereo unspecified) | inactive
18 | Cc1sc2ncnc(N3CCN(S(=O)(=O)c4ccc(C(C)(C)C)cc4)CC3)c2c1C | inconclusive: 2.82 µM [inhibitor, partial curve, poor fit]

Following part:

Row | Structure (SMILES) | Potency
22 | NC(=O)C1=C[C@@H](c2csc3ccccc23)C[C@@H](OCc2ccc(CO)cc2)O1 | inconclusive: 12.6 µM [inhibitor, single point]
23 | CCOc1ccc2c(c1)c(=O)c(S(=O)(=O)c1ccc(CC)cc1)cn2C | inactive
24 | CCOC(=O)C1CCCN(C(=O)c2cc(-c3ccco3)nc3ccccc23)C1 (stereo unspecified) | inconclusive: 12.6 µM [inhibitor, partial curve, poor fit]
25 | C/C(=N\NC(=O)c1c[nH]c2ccccc12)c1ccco1 | inconclusive: 6.31 µM [inhibitor, partial curve, poor fit]
26 | COc1ccc2c(c1)OC[C@H]1[C@H]2N2C(=O)c3ccccc3NC(=O)[C@@]2(C)[C@H]1c1ccccc1 | inconclusive: 12.6 µM [inhibitor, single point]
27 | C[C@@H]1CC[C@H]2C(=O)N3[C@@H](CC[C@@H](C)[C@@H]3c3ccc(Br)cc3)C(=O)N2[C@H]1c1ccc(Br)cc1 | inconclusive: 28.2 µM [inhibitor, single point]
28 | C(=N\N=C\c1ccncc1)/c1ccncc1 | inactive
29 | Cn1c(NCc2ccco2)nc2c1c(=O)n(Cc1ccc(Cl)cc1Cl)c(=O)n2C | inactive
30 | Cc1cc(C)nc(SCc2nnc(SCC(=O)O)n2-c2ccccc2)n1 | inactive
31 | CN(CC(=O)Nc1cc(S(=O)(=O)N2CCCCCC2)ccc1Cl)Cc1ccc2c(c1)OCO2 | inconclusive: 0.398 µM [inhibitor, partial curve]
32 | Cc1ccc2nc3c(cc(C(=O)NCc4ccco4)c(=N)n3Cc3ccco3)c(=O)n2c1 | inactive
33 | COc1ccc(/C=N/NC(=O)CCn2c3ccccc3c3ccccc32)cc1O | inconclusive: 10 µM [inhibitor, partial curve, poor fit]
34 | Cc1cc(NC(=O)CN2C(=O)NC(CC(C)C)C2=O)ccc1Br (stereo unspecified) | inconclusive: 11.2 µM [inhibitor, single point]
35 | O=C(CNC(=O)C1CCCCC1)NC1=NCCS1 | inactive
36 | Cn1cc(S(=O)(=O)Nc2ccc(F)c(Cl)c2)c(=O)n(C)c1=O | inconclusive: 2.82 µM [inhibitor, single point]
37 | O=C(CNC(=O)c1cccc(F)c1)N/N=C/c1cc(Br)ccc1OCc1ccccc1 | inactive
38 | Cc1ccc(C(=O)COC(=O)C(C)N2C(=O)C3C4C=CC(C4)C3C2=O)cc1C (stereo unspecified) | inactive
39 | COc1cc([N+](=O)[O-])cc(/C=N/NC(=O)c2cc(C)nc3ccccc23)c1O | inconclusive: 10 µM [inhibitor, partial curve, poor fit]
40 | O=[N+]([O-])c1ccc(-c2cn3ccccc3n2)cc1 | inconclusive: 2.82 µM [inhibitor, partial curve]
41 | COCCN1CCCC(CNCc2cn(C)nc2-c2ccc(Oc3ccccc3)cc2)C1 (stereo unspecified) | inconclusive: 0.891 µM [inhibitor, partial curve, poor fit]
